“Also recorded” adds a separate entry of the source. For at least one compound, name, drawing or mass did not settle the structure.
Test system: porcine coronary artery smooth muscle cells
Assay: [3H]thymidine incorporation (DNA synthesis) after PDGF stimulation, porcine coronary artery SMCs
Type: cell-based
Settings: PDGF 0.1 μg, 72 h
Experimental: SMCs were prepared by explant culture as previously described, grown in 24-well culture dishes to 70% confluence and then placed into serum-free DMEM supplemented with insulin, ascorbate, pyruvate and selenium for 5 days. These conditions result in the cessation of cell growth, and markers of the contractile state are expressed. The cells were subsequently treated with PDGF (0.1 μg) in the presence or absence of WY-14643, and 2 μCi/mL [^3H]thymidine were added to the culture medium 24 hours later. Seventy-two hours following PDGF treatment, incorporation of thymidine into trichloroacetate-precipitable material was measured. The data, which is presented as means±s.e. (n=3), are shown for porcine SMCs (panel A), human saphenous vein SMCs (panel B) and human internal mammary artery SMCs (panel C). All values have been normalized relative to the incorporation in unstimulated quiescent cells (control=100).
Quiescent SMCs were treated with PDGF (01. μg/ml) in the presence and absence of PGJ2, and incorporation of thymidine was measured as previously described. The data are presented as means±s.e. (n=3).
Quiescent SMCs were treated with PDGF (0.1 μg) in the presence or absence of clofibrate, and incorporation of thymidine was measured as previously described. The data are presented as means±s.e. (n=3).

CCOC(=O)C(C)(C)Oc1ccc(Cl)cc1 [Clofibrate, clofibrate]
DNA synthesis (thymidine incorporation) in response to PDGF stimulation: inhibits DNA synthesis; also recorded: can also inhibit cell proliferation

Reference: US20060052457A1, “Use of ppar alpha agonists for the treatment of vascular and renal diseases” (priority 2002, published 2006)
